Measurements reported in PubChem BioAssay AID1259405 (NCATS, 2018)

Purpose: 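Mouse-designed siRNAs used to find CHO productivity engineering targets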 (primary screen)
System: Chinese hamster CHO-K1 ovary cells with stable secreted eGFP expression
Knock-down reagent: single siRNA against mouse genes, 0.8 pmol siRNA per well (2 µl of 400 nM stock)
Time to read-out: 3 days
Read-out: 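Percent of the per-plate non-targeting control median for intracellular GFP per well by laser scanning cytometry and for cell viability by ATP luminescence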
Direction: GFP, % of control: higher = more GFP per well, higher productivity; viability (ATP), % of control: higher = more viable cells (more ATP)
Active means: 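a knock-down is called active if GFP reaches 120% or more of non-targeting control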
The deposit covers about 50,000 reagents; below is a random part of them. Of all reagents, about 4,000 (8%) were called active. 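Mouse siRNA library applied to hamster cells; one well for each siRNA.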 The numbers tell different reagents against one gene apart. Reagent sequences are not shown.

| gene | siRNA no. | GFP, % of control | viability (ATP), % of control | Outcome |
| --- | --- | --- | --- | --- |
| Prf1 | 1 | 77 | 70.1 | inactive |
| Prf1 | 2 | 100 | 61.2 | inactive |
| Prf1 | 3 | 36.8 | 53.4 | inactive |
| Pes1 | 1 | 36.8 | 44.7 | inactive |
| Pes1 | 2 | 31.8 | 66 | inactive |
| Pes1 | 3 | 85.4 | 85.1 | inactive |
| Ascl3 | 1 | 89.7 | 94.4 | inactive |
| Ascl3 | 2 | 92.1 | 79.1 | inactive |
| Slc2a8 | 1 | 64.2 | 103 | inactive |
| Slc2a8 | 2 | 71.7 | 90.7 | inactive |
| Slc2a8 | 3 | 13 | 14 | inactive |
| Eif1ad | 1 | 92.2 | 52.2 | inactive |
| Eif1ad | 2 | 167 | 102 | active |
| Eif1ad | 3 | 100 | 108 | inactive |
| Pilra | 1 | 168 | 48.8 | active |
| Pilra | 2 | 76.1 | 79 | inactive |
| Pilra | 3 | 95.9 | 112 | inactive |
| Col4a6 | 1 | 128 | 95.9 | active |
| Col4a6 | 2 | 86.9 | 80.3 | inactive |
| Or4c100 | 1 | 57.4 | 36.6 | inactive |
| Or4c100 | 2 | 71.1 | 81 | inactive |
| Or4c100 | 3 | 111 | 67.7 | inactive |
| 1700029H14Rik | 1 | 83.3 | 77 | inactive |
| 1700029H14Rik | 2 | 80.1 | 65.3 | inactive |
| 1700029H14Rik | 3 | 56.5 | 62.9 | inactive |
| Flad1 | 1 | 84.9 | 170 | inactive |
| Flad1 | 2 | 81.7 | 86.4 | inactive |
| Abca1 | 1 | 86.9 | 79.2 | inactive |
| Abca1 | 2 | 89.2 | 92.9 | inactive |
| Abca1 | 3 | 112 | 75.8 | inactive |
| Gtpbp3 | 1 | 84.5 | 75.9 | inactive |
| Gtpbp3 | 2 | 91.4 | 80.3 | inactive |
| Gtpbp3 | 3 | 89.8 | 55.4 | inactive |
| Or1p1 | 1 | 175 | 67.6 | active |
| Or1p1 | 2 | 27.2 | 63.9 | inactive |
| Or1p1 | 3 | 55.4 | 92 | inactive |
| Or1p1 | 4 | 132 | 104 | active |
| Or1p1 | 5 | 107 | 105 | inactive |
| Or1p1 | 6 | 138 | 111 | active |
| Srsf6 | 1 | 94.6 | 126 | inactive |
| Srsf6 | 2 | 63.2 | 72.4 | inactive |
| Or4c1 | 1 | 39.2 | 36.4 | inactive |
| Or4c1 | 2 | 66.7 | 76 | inactive |
| Or4c1 | 3 | 58.1 | 76.7 | inactive |
| Bag6 | 1 | 116 | 113 | inactive |
| Bag6 | 2 | 117 | 89 | inactive |
| Pdzk1ip1 | 1 | 51.1 | 66.4 | inactive |
| Pdzk1ip1 | 2 | 27.3 | 23.2 | inactive |
| Pdzk1ip1 | 3 | 62.2 | 50.3 | inactive |
| Nudt16 | 1 | 57.2 | 82.5 | inactive |
| Nudt16 | 2 | 68.7 | 82.2 | inactive |
| Nudt16 | 3 | 85.4 | 84.8 | inactive |
| Polb | 1 | 85.9 | 93.1 | inactive |
| Polb | 2 | 64.2 | 69.7 | inactive |

Next part; the last 12 above are carried over.
| gene | siRNA no. | GFP, % of control | viability (ATP), % of control | Outcome |
| --- | --- | --- | --- | --- |
| Or4c1 | 2 | 66.7 | 76 | inactive |
| Or4c1 | 3 | 58.1 | 76.7 | inactive |
| Bag6 | 1 | 116 | 113 | inactive |
| Bag6 | 2 | 117 | 89 | inactive |
| Pdzk1ip1 | 1 | 51.1 | 66.4 | inactive |
| Pdzk1ip1 | 2 | 27.3 | 23.2 | inactive |
| Pdzk1ip1 | 3 | 62.2 | 50.3 | inactive |
| Nudt16 | 1 | 57.2 | 82.5 | inactive |
| Nudt16 | 2 | 68.7 | 82.2 | inactive |
| Nudt16 | 3 | 85.4 | 84.8 | inactive |
| Polb | 1 | 85.9 | 93.1 | inactive |
| Polb | 2 | 64.2 | 69.7 | inactive |
| Calml4 | 1 | 82.1 | 79.3 | inactive |
| Calml4 | 2 | 60.2 | 58.5 | inactive |
| Calml4 | 3 | 128 | 137 | active |
| Tfap2e | 1 | 59.1 | 55.8 | inactive |
| Tfap2e | 2 | 59.7 | 59.3 | inactive |
| Tfap2e | 3 | 73.3 | 87.7 | inactive |
| Foxn3 | 1 | 70.2 | 71.9 | inactive |
| Foxn3 | 2 | 90.8 | 75.5 | inactive |
| Hoxb6 | 1 | 116 | 90.1 | inactive |
| Hoxb6 | 2 | 34 | 45.1 | inactive |
| Hoxb6 | 3 | 105 | 93.2 | inactive |
| Gale | 1 | 76.7 | 92.1 | inactive |
| Gale | 2 | 48.1 | 46.7 | inactive |
| Sfxn4 | 1 | 77.4 | 88.2 | inactive |
| Sfxn4 | 2 | 42.6 | 64.5 | inactive |
| Sfxn4 | 3 | 60.2 | 54.9 | inactive |
| Zfp319 | 1 | 48.2 | 53.8 | inactive |
| Zfp319 | 2 | 68.3 | 81 | inactive |
| Zfp319 | 3 | 79.7 | 51.5 | inactive |
| Mip | 1 | 65.6 | 88.1 | inactive |
| Mip | 2 | 53.2 | 72.4 | inactive |
| Mip | 3 | 84.2 | 75.8 | inactive |
| Ncapg2 | 1 | 37.9 | 23.9 | inactive |
| Ncapg2 | 2 | 99.8 | 102 | inactive |
| Ncapg2 | 3 | 140 | 112 | active |
| Vmn1r21 | 1 | 76.4 | 73.6 | inactive |
| Vmn1r21 | 2 | 144 | 82.5 | active |
| Vmn1r21 | 3 | 67.1 | 82.8 | inactive |
| Kirrel2 | 1 | 51.1 | 51.1 | inactive |
| Kirrel2 | 2 | 62 | 35.4 | inactive |
| Kirrel2 | 3 | 74.9 | 45.3 | inactive |
| Cdc42ep1 | 1 | 74.2 | 92.7 | inactive |
| Cdc42ep1 | 2 | 66.8 | 71.3 | inactive |
| Cdc42ep1 | 3 | 80.3 | 104 | inactive |
| Nras | 1 | 61.8 | 46.1 | inactive |
| Nras | 2 | 97.4 | 71.3 | inactive |
| Nras | 3 | 40.7 | 69.5 | inactive |
| Inpp5b | 1 | 78.2 | 91.7 | inactive |
| Inpp5b | 2 | 56.4 | 57.1 | inactive |
| Inpp5b | 3 | 101 | 99 | inactive |
| Fam133b | 1 | 82.9 | 67 | inactive |
| Fam133b | 2 | 94.2 | 88.9 | inactive |
| Fam133b | 3 | 95.7 | 134 | inactive |
| Svop | 1 | 57.4 | 53.7 | inactive |
| Svop | 2 | 79.5 | 86.7 | inactive |
| Svop | 3 | 77.6 | 65.1 | inactive |
| Atp2a2 | 1 | 100 | 67.3 | inactive |
| Atp2a2 | 2 | 96 | 68.1 | inactive |
| Atp2a2 | 3 | 78.7 | 79.1 | inactive |
| H2-M11 | 1 | 57.2 | 50.4 | inactive |
| H2-M11 | 2 | 96.2 | 81.2 | inactive |
| H2-M11 | 3 | 73 | 56.9 | inactive |
| 2900005J15Rik | 1 | 48.2 | 49.5 | inactive |
| 2900005J15Rik | 2 | 58.5 | 64.1 | inactive |
| 2900005J15Rik | 3 | 84 | 74.1 | inactive |
